# Laboratory results: PubChem BioAssay AID1259254 (NCATS, 2017)
# Screen: 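Gene knock-downs that lead to re-replication, shown by excess G2 DNA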 (primary screen)
# System: human HCT116 colorectal cancer cells
# Reagents: single siRNA against human genes
# Timing: 3 days
# Detection: 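Imaged Hoechst DNA stain sorts each cell into a cycle phase by DNA amount; per plate, G2 fraction set to 0% for non-targeting and 100% for GMNN siRNA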
# Scale: G2 robust z-score and G2 cells, % of GMNN control: higher = more G2 cells, more excess DNA replication; raw share of cells in G2: higher = larger share of cells with G2 DNA content
# Hit rule: 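An siRNA counts as active if its G2 robust z-score lies at least 5 MADs above the screen median; here such calls match roughly 38% of GMNN control or more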
# Shown is one part, drawn at random, of about 59,000 deposited reagents. Of all reagents, about 1,550 (2.6%) are marked active. 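G2 share is only a proxy for re-replication; each gene was hit by three separate siRNAs, and active genes were retested.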 Raw values vary from plate to plate and are shown uncorrected. Entries without a mark were called inactive. Reagents against one gene are numbered here. The record does not give: the amount of reagent.
Gene,reagent no.,G2 robust z-score,"G2 cells, % of GMNN control",raw share of cells in G2 (%)
B4GALT3,1,1.77,15.4,11.5
B4GALT3,2,0.656,7.58,7.42
B4GALT3,3,2.11,17.8,11.5
CFAP61,1,2.34,19.4,11.7
CFAP61,2,0.446,6.1,6.58
CFAP61,3,0.129,3.87,4.65
GPSM1,1,-1.01,-4.14,4.29
GPSM1,2,0.0585,3.38,5.31
GPSM1,3,-0.8,-2.66,3.12
MYO1C,1,-0.659,-1.67,2.65
MYO1C,2,1.24,11.7,9.89
MYO1C,3,-0.204,1.53,6.08
IRAK4,1,1.72,15.1,10.3
IRAK4,2,-0.0358,2.72,6.18
IRAK4,3,3.56,28,12.6
GNA11,1,-0.364,0.406,3.8
GNA11,2,1.03,10.2,9.14
GNA11,3,1.73,15.2,10.7
KPNA1,1,-0.468,-0.324,4.08
KPNA1,2,6.9 (active),51.5,23.8
KPNA1,3,-1.12,-4.94,3.8
BNIP2,1,0.941,9.59,9.8
BNIP2,2,5.17 (active),39.3,18.5
BNIP2,3,-0.978,-3.91,1.99
TMED8,1,0.715,8,6.56
TMED8,2,-0.618,-1.38,2.51
TMED8,3,0.282,4.95,4.77
SLC16A3,1,2.83,22.9,14.9
SLC16A3,2,-0.295,0.891,5.58
SLC16A3,3,0.149,4.02,6.15
DHX34,1,0.919,9.43,8.77
DHX34,2,-0.000605,2.96,4.21
DHX34,3,-0.698,-1.95,3.96
H2BW1,1,-0.565,-1.01,3.24
H2BW1,2,-0.0246,2.79,3.9
H2BW1,3,0.343,5.38,4.46
SP4,1,-0.483,-0.433,4.4
SP4,2,1.14,11,7.6
SP4,3,1.75,15.3,10.8
HYLS1,1,-0.563,-0.993,3.22
HYLS1,2,-0.418,0.0295,3.14
HYLS1,3,0.324,5.25,4.87
OLIG3,1,-0.485,-0.444,5.75
OLIG3,2,-0.689,-1.88,4.01
OLIG3,3,-0.198,1.58,5.36
RAB8B,1,0.515,6.59,8.94
RAB8B,2,1.17,11.2,8.39
RAB8B,3,1.04,10.3,7.75

Hits, among the entries above:
Gene,reagent no.,G2 robust z-score,"G2 cells, % of GMNN control",raw share of cells in G2 (%)
KPNA1,2,6.9 (active),51.5,23.8
BNIP2,2,5.17 (active),39.3,18.5
